Patent publication US20050013808A1, “Nitroreductase enzymes” (priority 2001, published 2005)

Test system: HeLa cells
Assay: Western blot analysis of NTR expression in infected cells
Format: cell-based, human
Settings: western blot of whole cell extracts

Row | Molecule | level of NTR expression compared with WT
1 | F124N (protein) MDIISVALKRHSTKAFDASKKLTPEQAEQIKTLLQYSPSSTNSQPWHFIVASTEEGKARVAKSAAGNYVFNERKMLDASHVVVFCAKTAMDDVWLKLVVDQEDADGRFATPEAKAANDKGRKFNADMHRKDLHDDAEWMAKQVYLNVGNFLLGVAALGLDAVPIEGFDAAILDAEFGLKEKGYTSLVVVPVGHHSVEDFNATLPKSRLPQNITLTEV | lower than in WT NTR-expressing cells
2 | N71S F124K: NTR double mutant, asparagine 71 to serine combined with phenylalanine 124 to lysine (protein) MDIISVALKRHSTKAFDASKKLTPEQAEQIKTLLQYSPSSTNSQPWHFIVASTEEGKARVAKSAAGNYVFSERKMLDASHVVVFCAKTAMDDVWLKLVVDQEDADGRFATPEAKAANDKGRKFKADMHRKDLHDDAEWMAKQVYLNVGNFLLGVAALGLDAVPIEGFDAAILDAEFGLKEKGYTSLVVVPVGHHSVEDFNATLPKSRLPQNITLTEV | more similar to that of WT
